Consider 37 molecules from the supplement of paper PMC10077471.

Whole data set: some 1,900 compounds, median “excess over highest single agent (ExcessHSA) synergy score, 6x6 matrix” near -83, cut for the lowest 2% near -370. The list shows a part of the results.

The test relates to NCI-H446. The test is described as follows: excess over highest single agent (ExcessHSA) synergy score, 6x6 matrix; higher = less synergy (more negative = stronger synergy). The conditions noted are these: 72 h; CellTiter-Glo viability. On the technique in general: ATP-based viability assays read luminescence as a measure of living cells.
As to `N#CC(c1ccnc(NCCc2cccnc2)n1)c1nc2ccccc2s1` (configuration not stated) + Cc1sc2c(c1C)C(c1ccc(Cl)cc1)=N[C@@H](CC(=O)OC(C)(C)C)c1nnc(C)n1-2 [NCGC00250412-19], the “excess over highest single agent” value was determined as 4.27. The value for `C[C@H]1[C@H](NC(=O)/C(=N\OC(C)(C)C(=O)O)c2csc(N)n2)C(=O)N1S(=O)(=O)O` + Cc1sc2c(c1C)C(c1ccc(Cl)cc1)=N[C@@H](CC(=O)OC(C)(C)C)c1nnc(C)n1-2 [NCGC00250412-19] was -133; that for `OC[C@H]1O[C@@H](OCCc2ccc(O)cc2)[C@H](O)[C@@H](O)[C@@H]1O` + Cc1sc2c(c1C)C(c1ccc(Cl)cc1)=N[C@@H](CC(=O)OC(C)(C)C)c1nnc(C)n1-2 [NCGC00250412-19] was -24.5; that for `CCc1c2c(nc3ccc(OC(=O)N4CCC(N5CCCCC5)CC4)cc13)-c1cc3c(c(=O)n1C2)COC(=O)[C@]3(O)CC` + Cc1sc2c(c1C)C(c1ccc(Cl)cc1)=N[C@@H](CC(=O)OC(C)(C)C)c1nnc(C)n1-2 [NCGC00250412-19] was -249.

As to `C=C1/C(=C\C=C2/CCC[C@]3(C)[C@@H]([C@H](C)CCCC(C)(C)O)CC[C@@H]23)C[C@@H](O)C[C@@H]1O` + Cc1sc2c(c1C)C(c1ccc(Cl)cc1)=N[C@@H](CC(=O)OC(C)(C)C)c1nnc(C)n1-2 [NCGC00250412-19], the “excess over highest single agent” value is 297. Then `Oc1ccc([C@@H]2Oc3ccc(O)cc3[C@@H]3CCC[C@@H]32)cc1` + Cc1sc2c(c1C)C(c1ccc(Cl)cc1)=N[C@@H](CC(=O)OC(C)(C)C)c1nnc(C)n1-2 [NCGC00250412-19], with -48.9; and `Cn1c2cc([S+](C)[O-])sc2c2cnn(Cc3cccc(N)c3)c(=O)c21` (configuration not stated) + Cc1sc2c(c1C)C(c1ccc(Cl)cc1)=N[C@@H](CC(=O)OC(C)(C)C)c1nnc(C)n1-2 [NCGC00250412-19], with -110; and `CCC[C@H](NC(=O)/C(C#N)=C/c1cccc(Br)n1)c1ccccc1` + Cc1sc2c(c1C)C(c1ccc(Cl)cc1)=N[C@@H](CC(=O)OC(C)(C)C)c1nnc(C)n1-2 [NCGC00250412-19], with -190. The value for `C[C@@H](Oc1ccc2[nH]nc(/C=C/c3cnn(CCO)c3)c2c1)c1c(Cl)cncc1Cl` + Cc1sc2c(c1C)C(c1ccc(Cl)cc1)=N[C@@H](CC(=O)OC(C)(C)C)c1nnc(C)n1-2 [NCGC00250412-19] was -310; that for `C[C@H]1O[C@H](O[C@H]2[C@H](O)[C@@H](O)[C@@H](O[C@H]3[C@H](O)[C@@H](O)C(O)O[C@@H]3CO)O[C@@H]2CO)[C@H](O)[C@@H](O)[C@@H]1N[C@H]1C=C(CO)[C@@H](O)[C@H](O)[C@H]1O` (some centres not stated) + Cc1sc2c(c1C)C(c1ccc(Cl)cc1)=N[C@@H](CC(=O)OC(C)(C)C)c1nnc(C)n1-2 [NCGC00250412-19] was -178. With `CNC1CCCN(c2c(F)cc3c(=O)c(C(=O)O)cn(C4CC4)c3c2OC)C1` (configuration not stated) + Cc1sc2c(c1C)C(c1ccc(Cl)cc1)=N[C@@H](CC(=O)OC(C)(C)C)c1nnc(C)n1-2 [NCGC00250412-19], the “excess over highest single agent” value was -128. The value for `Cn1c(CNc2ccc(C(=N)N)cc2)nc2cc(C(=O)N(CCC(=O)O)c3ccccn3)ccc21` + Cc1sc2c(c1C)C(c1ccc(Cl)cc1)=N[C@@H](CC(=O)OC(C)(C)C)c1nnc(C)n1-2 [NCGC00250412-19] was -20.2. Then `O=P1(NCCCl)OCCCN1CCCl` (configuration not stated) + Cc1sc2c(c1C)C(c1ccc(Cl)cc1)=N[C@@H](CC(=O)OC(C)(C)C)c1nnc(C)n1-2 [NCGC00250412-19], with -10.1; and `COc1ccc(C(=O)c2c(C)n(CCN3CCOCC3)c3cc(I)ccc23)cc1` + Cc1sc2c(c1C)C(c1ccc(Cl)cc1)=N[C@@H](CC(=O)OC(C)(C)C)c1nnc(C)n1-2 [NCGC00250412-19], with -72.5.

For `CN1CCC(=C2c3ccccc3C=Cc3ccccc32)CC1` + Cc1sc2c(c1C)C(c1ccc(Cl)cc1)=N[C@@H](CC(=O)OC(C)(C)C)c1nnc(C)n1-2 [NCGC00250412-19], the “excess over highest single agent” value was -150. As to `N=C(N)NC(=N)NCCc1ccccc1` + Cc1sc2c(c1C)C(c1ccc(Cl)cc1)=N[C@@H](CC(=O)OC(C)(C)C)c1nnc(C)n1-2 [NCGC00250412-19], the “excess over highest single agent” value is -24. As to `CO[C@H]1/C=C/O[C@@]2(C)Oc3c(C)c(O)c4c(O)c(c(/C=N/N5CCN(C6CCCC6)CC5)c(O)c4c3C2=O)NC(=O)/C(C)=C\C=C\[C@H](C)[C@H](O)[C@@H](C)[C@@H](O)[C@@H](C)[C@H](OC(C)=O)[C@@H]1C` + Cc1sc2c(c1C)C(c1ccc(Cl)cc1)=N[C@@H](CC(=O)OC(C)(C)C)c1nnc(C)n1-2 [NCGC00250412-19], the “excess over highest single agent” value is -105. The value for `CCCc1cc(C(N)=S)ccn1` + Cc1sc2c(c1C)C(c1ccc(Cl)cc1)=N[C@@H](CC(=O)OC(C)(C)C)c1nnc(C)n1-2 [NCGC00250412-19] was 1.72. Turning to `CCOC(=O)C1=C(C)NC2=C(C(=O)CC(C)(C)C2)C1c1ccc(-c2ccccc2)cc1` (configuration not stated) + Cc1sc2c(c1C)C(c1ccc(Cl)cc1)=N[C@@H](CC(=O)OC(C)(C)C)c1nnc(C)n1-2 [NCGC00250412-19], the “excess over highest single agent” value worked out at 153. Regarding `C#Cc1cccc(Nc2ncnc3cc(OC)c(OCCCCCCC(=O)NO)cc23)c1` + Cc1sc2c(c1C)C(c1ccc(Cl)cc1)=N[C@@H](CC(=O)OC(C)(C)C)c1nnc(C)n1-2 [NCGC00250412-19], the “excess over highest single agent” value was -276. The value for `O=C(O)[C@]1(Cc2cccc(Nc3nccs3)n2)CC[C@@H](Oc2cccc(Cl)c2F)CC1` + Cc1sc2c(c1C)C(c1ccc(Cl)cc1)=N[C@@H](CC(=O)OC(C)(C)C)c1nnc(C)n1-2 [NCGC00250412-19] was -273; that for `COc1cc2c(NC3CCN(C(C)C)CC3)nc(C3CCCCC3)nc2cc1OCCCN1CCCC1` + Cc1sc2c(c1C)C(c1ccc(Cl)cc1)=N[C@@H](CC(=O)OC(C)(C)C)c1nnc(C)n1-2 [NCGC00250412-19] was -112. The value for `CC(C)CNc1ccnc(NCc2csc(-c3ccccc3)n2)n1` + Cc1sc2c(c1C)C(c1ccc(Cl)cc1)=N[C@@H](CC(=O)OC(C)(C)C)c1nnc(C)n1-2 [NCGC00250412-19] was -59; that for `COc1cc2c(Nc3ccc(NC(=O)c4ccccc4)cc3)ncnc2cc1OCCCN1CCOCC1` + Cc1sc2c(c1C)C(c1ccc(Cl)cc1)=N[C@@H](CC(=O)OC(C)(C)C)c1nnc(C)n1-2 [NCGC00250412-19] was 91.6. The value for `O=C(NCc1ccccc1)[C@H](Cc1ccccc1)NC(=O)[C@H]1O[C@@H]1C(=O)NCCc1ccc(O)cc1` + Cc1sc2c(c1C)C(c1ccc(Cl)cc1)=N[C@@H](CC(=O)OC(C)(C)C)c1nnc(C)n1-2 [NCGC00250412-19] was -10.6. With `CN(CC(=O)N(Cc1ccc(C2CCCCC2)cc1)c1ccc(C(=O)O)c(O)c1)S(=O)(=O)c1c(F)c(F)c(F)c(F)c1F` + Cc1sc2c(c1C)C(c1ccc(Cl)cc1)=N[C@@H](CC(=O)OC(C)(C)C)c1nnc(C)n1-2 [NCGC00250412-19], the “excess over highest single agent” value was -91.4.

As for `CC(C)(O)[C@H]1CC[C@@](C)([C@H]2[C@@H](O)C[C@@]3(C)[C@@H]4C[C@H](O[C@@H]5O[C@H](CO)[C@@H](O)[C@H](O)[C@H]5O)[C@H]5C(C)(C)[C@@H](O[C@@H]6OC[C@@H](O)[C@H](O)[C@H]6O)CC[C@@]56C[C@@]46CC[C@]23C)O1` + Cc1sc2c(c1C)C(c1ccc(Cl)cc1)=N[C@@H](CC(=O)OC(C)(C)C)c1nnc(C)n1-2 [NCGC00250412-19], the “excess over highest single agent” value is -30.6. As for `NNCCc1ccccc1` + Cc1sc2c(c1C)C(c1ccc(Cl)cc1)=N[C@@H](CC(=O)OC(C)(C)C)c1nnc(C)n1-2 [NCGC00250412-19], the “excess over highest single agent” value is -11.1. The value for `COC(=O)Nc1nc2cc(C(=O)c3cccs3)ccc2[nH]1` + Cc1sc2c(c1C)C(c1ccc(Cl)cc1)=N[C@@H](CC(=O)OC(C)(C)C)c1nnc(C)n1-2 [NCGC00250412-19] was -109; that for `CC(C)(C)c1cnc(CSc2cnc(NC(=O)C3CCNCC3)s2)o1` + Cc1sc2c(c1C)C(c1ccc(Cl)cc1)=N[C@@H](CC(=O)OC(C)(C)C)c1nnc(C)n1-2 [NCGC00250412-19] was -215.

As to `Cc1cc(=O)c2c(O)c3c(O)cc(=O)c4c3c3c(cc(O)c1c23)C(C)(C)C=4O` + Cc1sc2c(c1C)C(c1ccc(Cl)cc1)=N[C@@H](CC(=O)OC(C)(C)C)c1nnc(C)n1-2 [NCGC00250412-19], the “excess over highest single agent” value is -128. Then `CC(C)c1c(C(=O)Nc2ccccc2)c(-c2ccccc2)c(-c2ccc(F)cc2)n1CC[C@@H](O)C[C@@H](O)CC(=O)O` + Cc1sc2c(c1C)C(c1ccc(Cl)cc1)=N[C@@H](CC(=O)OC(C)(C)C)c1nnc(C)n1-2 [NCGC00250412-19], with -73.4. Then `OC(Cn1cncn1)(Cn1cncn1)c1ccc(F)cc1F` + Cc1sc2c(c1C)C(c1ccc(Cl)cc1)=N[C@@H](CC(=O)OC(C)(C)C)c1nnc(C)n1-2 [NCGC00250412-19], with -24.3; and `OC[C@H](Cc1ccccc1)Nc1nc(Oc2ccc3c(c2)CCC3)nc2c1ncn2Cc1ccc(-c2ccccc2)cc1` + Cc1sc2c(c1C)C(c1ccc(Cl)cc1)=N[C@@H](CC(=O)OC(C)(C)C)c1nnc(C)n1-2 [NCGC00250412-19], with -24.1. The value for `NCCc1c[nH]cn1` + Cc1sc2c(c1C)C(c1ccc(Cl)cc1)=N[C@@H](CC(=O)OC(C)(C)C)c1nnc(C)n1-2 [NCGC00250412-19] was 406; that for `C[C@@H](NCCCc1cccc(C(F)(F)F)c1)c1cccc2ccccc12` + Cc1sc2c(c1C)C(c1ccc(Cl)cc1)=N[C@@H](CC(=O)OC(C)(C)C)c1nnc(C)n1-2 [NCGC00250412-19] was -78.

Turning to `CN1CCc2c(n(Cc3ccc(C(=O)NO)cc3)c3ccccc23)C1` + Cc1sc2c(c1C)C(c1ccc(Cl)cc1)=N[C@@H](CC(=O)OC(C)(C)C)c1nnc(C)n1-2 [NCGC00250412-19], the “excess over highest single agent” value came to 215.
